± gives the standard deviation of the averaged measurements. The list shows a part of the results.
Compound: Nc1nc2c(ncn2[C@@H]2O[C@H](COP(=O)(O)OP(=O)(O)OP(=O)(O)O)[C@@H](O)[C@H]2O)c(=O)[nH]1 [guanosine triphosphate]
Experiment: NP40-soluble protein abundance relative to vehicle (solubility fold change) (ratio); higher = more soluble protein in presence of GTP
How it was run: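 Each value is a fold change relative to the detergent-processed vehicle, calculated per replicate from vsn-normalised intensities. Jurkat crude lysate received eight concentrations (0.1 to 10 mM) for 10 min at room temperature and 3 min at 37 °C, then was solubilised in 0.8% NP40 with benzonase (60 min, 4 °C). The ultracentrifuged supernatant was TMT-labelled and run by LC-MS/MS in three independent experiments.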

Amino acid sequences for entries named in this document (tags omitted). A change or cut given only in a name is not applied to a line headed by its entry.
UniProt P54132: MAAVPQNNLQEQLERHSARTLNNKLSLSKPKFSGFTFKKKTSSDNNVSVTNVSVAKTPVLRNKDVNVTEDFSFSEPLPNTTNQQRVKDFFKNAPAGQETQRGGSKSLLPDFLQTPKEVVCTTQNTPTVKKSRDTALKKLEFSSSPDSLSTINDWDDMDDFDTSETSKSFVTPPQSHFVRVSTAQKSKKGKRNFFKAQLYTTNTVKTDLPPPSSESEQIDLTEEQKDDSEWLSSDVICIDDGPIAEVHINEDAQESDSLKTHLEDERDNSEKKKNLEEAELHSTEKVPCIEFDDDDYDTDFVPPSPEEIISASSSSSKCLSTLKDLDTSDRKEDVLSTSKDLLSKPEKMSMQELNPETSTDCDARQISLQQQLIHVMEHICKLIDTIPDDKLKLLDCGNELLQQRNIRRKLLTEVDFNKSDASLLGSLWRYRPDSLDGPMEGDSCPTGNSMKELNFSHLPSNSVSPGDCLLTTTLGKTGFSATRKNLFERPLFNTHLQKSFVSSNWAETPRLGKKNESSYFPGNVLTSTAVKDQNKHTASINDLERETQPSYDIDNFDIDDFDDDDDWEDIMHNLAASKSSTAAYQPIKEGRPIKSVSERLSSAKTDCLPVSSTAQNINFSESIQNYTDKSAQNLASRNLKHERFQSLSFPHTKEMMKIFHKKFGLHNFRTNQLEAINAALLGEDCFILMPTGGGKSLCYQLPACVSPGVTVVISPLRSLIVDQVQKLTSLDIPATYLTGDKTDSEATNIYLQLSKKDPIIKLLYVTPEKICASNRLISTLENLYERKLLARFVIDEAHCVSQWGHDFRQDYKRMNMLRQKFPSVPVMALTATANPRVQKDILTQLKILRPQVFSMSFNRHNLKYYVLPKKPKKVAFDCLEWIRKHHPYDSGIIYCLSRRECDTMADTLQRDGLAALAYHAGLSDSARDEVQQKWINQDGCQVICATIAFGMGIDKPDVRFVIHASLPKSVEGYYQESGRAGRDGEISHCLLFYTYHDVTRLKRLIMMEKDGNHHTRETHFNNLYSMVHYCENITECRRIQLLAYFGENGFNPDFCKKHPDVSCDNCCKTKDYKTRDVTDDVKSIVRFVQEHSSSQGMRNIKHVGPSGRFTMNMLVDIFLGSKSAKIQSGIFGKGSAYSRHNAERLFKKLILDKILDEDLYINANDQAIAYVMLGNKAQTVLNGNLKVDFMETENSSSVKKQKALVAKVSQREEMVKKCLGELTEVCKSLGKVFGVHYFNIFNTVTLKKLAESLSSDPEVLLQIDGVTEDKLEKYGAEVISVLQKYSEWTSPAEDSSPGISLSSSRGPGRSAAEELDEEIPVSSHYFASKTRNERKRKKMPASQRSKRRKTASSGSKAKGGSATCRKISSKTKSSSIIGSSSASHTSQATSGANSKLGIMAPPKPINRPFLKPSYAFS
UniProt P98179: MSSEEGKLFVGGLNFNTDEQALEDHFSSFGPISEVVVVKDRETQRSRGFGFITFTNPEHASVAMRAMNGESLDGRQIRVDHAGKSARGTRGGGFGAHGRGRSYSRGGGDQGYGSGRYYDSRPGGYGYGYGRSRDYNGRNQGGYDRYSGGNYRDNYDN
UniProt P52758: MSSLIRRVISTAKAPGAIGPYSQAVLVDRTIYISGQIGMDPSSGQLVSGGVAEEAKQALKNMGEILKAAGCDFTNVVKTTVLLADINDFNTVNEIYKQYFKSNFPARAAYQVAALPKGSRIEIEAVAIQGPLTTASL
UniProt P58546, whole entry: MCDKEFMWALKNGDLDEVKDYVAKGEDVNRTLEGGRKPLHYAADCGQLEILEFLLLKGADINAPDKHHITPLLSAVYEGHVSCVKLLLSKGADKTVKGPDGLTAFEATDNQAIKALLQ
UniProt P62993, whole entry, looked up: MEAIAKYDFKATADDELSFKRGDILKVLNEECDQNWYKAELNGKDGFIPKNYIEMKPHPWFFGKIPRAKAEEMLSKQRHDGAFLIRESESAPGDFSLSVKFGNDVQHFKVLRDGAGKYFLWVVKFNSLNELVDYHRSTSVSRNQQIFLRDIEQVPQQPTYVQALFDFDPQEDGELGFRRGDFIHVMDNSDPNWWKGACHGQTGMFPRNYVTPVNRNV
UniProt P51812, whole entry: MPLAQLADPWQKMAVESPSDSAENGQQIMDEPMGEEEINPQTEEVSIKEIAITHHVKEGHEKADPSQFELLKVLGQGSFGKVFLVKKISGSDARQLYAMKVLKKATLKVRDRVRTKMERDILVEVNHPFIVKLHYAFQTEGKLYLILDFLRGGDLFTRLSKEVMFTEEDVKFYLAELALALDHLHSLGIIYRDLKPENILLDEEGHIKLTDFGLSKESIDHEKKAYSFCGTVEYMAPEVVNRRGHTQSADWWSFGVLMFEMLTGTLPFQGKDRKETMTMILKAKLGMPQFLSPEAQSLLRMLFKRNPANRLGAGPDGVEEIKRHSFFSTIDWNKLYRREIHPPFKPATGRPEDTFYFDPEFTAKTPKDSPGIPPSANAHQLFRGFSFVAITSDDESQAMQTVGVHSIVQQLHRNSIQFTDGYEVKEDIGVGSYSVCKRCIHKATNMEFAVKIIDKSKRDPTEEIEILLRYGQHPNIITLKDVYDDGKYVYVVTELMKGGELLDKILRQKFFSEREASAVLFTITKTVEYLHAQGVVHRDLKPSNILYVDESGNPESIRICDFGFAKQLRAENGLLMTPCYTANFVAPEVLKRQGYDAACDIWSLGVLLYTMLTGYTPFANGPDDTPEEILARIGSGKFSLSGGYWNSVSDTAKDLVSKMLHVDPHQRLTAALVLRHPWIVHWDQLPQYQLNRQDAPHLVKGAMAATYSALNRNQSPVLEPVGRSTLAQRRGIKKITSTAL
UniProt P62877, whole entry, looked up: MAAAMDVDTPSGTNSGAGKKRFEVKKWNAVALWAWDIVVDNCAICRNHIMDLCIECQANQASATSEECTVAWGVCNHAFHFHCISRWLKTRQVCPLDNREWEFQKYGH
UniProt P60520, whole entry: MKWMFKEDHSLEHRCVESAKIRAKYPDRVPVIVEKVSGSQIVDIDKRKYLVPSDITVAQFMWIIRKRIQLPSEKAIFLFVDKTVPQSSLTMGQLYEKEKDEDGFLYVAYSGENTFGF
UniProt P52630: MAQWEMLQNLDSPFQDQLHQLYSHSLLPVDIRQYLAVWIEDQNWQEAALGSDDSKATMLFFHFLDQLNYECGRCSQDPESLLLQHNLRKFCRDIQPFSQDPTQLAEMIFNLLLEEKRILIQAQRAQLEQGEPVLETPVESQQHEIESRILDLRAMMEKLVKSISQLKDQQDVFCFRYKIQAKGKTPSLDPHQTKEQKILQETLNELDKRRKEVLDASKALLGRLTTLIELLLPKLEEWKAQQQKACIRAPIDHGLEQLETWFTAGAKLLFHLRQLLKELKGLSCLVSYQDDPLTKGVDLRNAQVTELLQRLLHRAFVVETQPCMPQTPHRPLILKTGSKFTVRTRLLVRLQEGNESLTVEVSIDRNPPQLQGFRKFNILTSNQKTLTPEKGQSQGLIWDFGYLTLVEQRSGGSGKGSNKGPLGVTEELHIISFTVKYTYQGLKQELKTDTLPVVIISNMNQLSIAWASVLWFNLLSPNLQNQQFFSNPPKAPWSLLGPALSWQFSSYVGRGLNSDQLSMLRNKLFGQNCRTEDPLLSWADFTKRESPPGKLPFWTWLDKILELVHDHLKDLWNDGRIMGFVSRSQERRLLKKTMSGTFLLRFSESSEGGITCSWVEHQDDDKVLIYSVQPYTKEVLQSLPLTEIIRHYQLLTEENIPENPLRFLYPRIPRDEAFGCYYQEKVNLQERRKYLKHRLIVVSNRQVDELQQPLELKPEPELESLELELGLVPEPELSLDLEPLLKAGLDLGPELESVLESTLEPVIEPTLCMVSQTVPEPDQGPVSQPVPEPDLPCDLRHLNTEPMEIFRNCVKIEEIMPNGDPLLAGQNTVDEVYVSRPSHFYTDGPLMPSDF
UniProt P51531, whole entry: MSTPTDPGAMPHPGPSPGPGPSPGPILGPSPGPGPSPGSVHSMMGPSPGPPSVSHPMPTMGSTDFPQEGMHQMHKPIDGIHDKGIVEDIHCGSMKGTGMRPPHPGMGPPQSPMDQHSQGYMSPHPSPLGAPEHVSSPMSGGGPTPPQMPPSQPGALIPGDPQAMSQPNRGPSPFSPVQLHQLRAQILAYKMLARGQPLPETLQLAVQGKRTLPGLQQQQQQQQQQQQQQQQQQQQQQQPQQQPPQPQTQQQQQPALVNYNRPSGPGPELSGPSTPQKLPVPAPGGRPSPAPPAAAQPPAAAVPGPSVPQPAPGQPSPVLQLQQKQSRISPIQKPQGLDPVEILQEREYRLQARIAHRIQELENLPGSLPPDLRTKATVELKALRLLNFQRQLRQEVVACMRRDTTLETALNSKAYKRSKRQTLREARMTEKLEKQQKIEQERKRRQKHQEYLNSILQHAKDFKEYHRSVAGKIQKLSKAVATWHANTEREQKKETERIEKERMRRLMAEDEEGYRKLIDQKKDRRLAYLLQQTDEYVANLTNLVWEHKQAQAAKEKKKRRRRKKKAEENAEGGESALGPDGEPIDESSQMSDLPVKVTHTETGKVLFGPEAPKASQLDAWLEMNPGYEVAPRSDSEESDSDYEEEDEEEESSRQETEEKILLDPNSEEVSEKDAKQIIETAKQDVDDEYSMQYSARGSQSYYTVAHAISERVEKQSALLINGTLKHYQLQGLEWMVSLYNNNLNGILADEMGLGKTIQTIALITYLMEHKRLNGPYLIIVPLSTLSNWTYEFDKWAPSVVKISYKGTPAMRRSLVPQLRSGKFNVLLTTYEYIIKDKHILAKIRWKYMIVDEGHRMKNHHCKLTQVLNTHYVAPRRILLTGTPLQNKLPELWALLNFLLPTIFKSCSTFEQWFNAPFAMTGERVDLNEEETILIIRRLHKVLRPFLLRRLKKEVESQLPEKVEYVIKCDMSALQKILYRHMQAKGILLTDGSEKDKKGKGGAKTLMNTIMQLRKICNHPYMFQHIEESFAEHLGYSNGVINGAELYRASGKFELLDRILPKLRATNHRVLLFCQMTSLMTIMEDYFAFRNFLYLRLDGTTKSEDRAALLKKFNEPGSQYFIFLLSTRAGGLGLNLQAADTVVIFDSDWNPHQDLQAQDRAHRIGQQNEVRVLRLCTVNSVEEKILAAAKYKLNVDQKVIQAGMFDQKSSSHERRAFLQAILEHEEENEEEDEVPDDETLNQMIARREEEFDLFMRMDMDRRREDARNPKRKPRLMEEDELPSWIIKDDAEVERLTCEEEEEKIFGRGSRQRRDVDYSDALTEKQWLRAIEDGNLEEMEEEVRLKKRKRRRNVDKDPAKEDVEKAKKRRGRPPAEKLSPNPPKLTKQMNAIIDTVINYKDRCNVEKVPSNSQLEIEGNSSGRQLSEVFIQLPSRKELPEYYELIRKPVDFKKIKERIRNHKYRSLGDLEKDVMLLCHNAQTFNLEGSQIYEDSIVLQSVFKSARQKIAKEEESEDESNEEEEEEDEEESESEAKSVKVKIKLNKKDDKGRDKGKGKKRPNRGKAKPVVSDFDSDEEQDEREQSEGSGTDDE
UniProt P62937, whole entry, looked up: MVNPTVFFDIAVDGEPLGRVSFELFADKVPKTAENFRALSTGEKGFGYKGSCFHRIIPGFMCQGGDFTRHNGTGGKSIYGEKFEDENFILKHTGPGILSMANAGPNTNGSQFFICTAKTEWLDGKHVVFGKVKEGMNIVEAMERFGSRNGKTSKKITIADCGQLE
UniProt P61006: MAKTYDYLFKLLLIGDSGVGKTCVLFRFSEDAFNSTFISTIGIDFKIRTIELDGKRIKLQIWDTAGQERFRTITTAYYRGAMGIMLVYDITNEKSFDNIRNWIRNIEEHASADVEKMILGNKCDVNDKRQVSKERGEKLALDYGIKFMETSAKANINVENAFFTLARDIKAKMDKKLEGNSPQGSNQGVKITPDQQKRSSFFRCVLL
UniProt P78362, whole entry, looked up: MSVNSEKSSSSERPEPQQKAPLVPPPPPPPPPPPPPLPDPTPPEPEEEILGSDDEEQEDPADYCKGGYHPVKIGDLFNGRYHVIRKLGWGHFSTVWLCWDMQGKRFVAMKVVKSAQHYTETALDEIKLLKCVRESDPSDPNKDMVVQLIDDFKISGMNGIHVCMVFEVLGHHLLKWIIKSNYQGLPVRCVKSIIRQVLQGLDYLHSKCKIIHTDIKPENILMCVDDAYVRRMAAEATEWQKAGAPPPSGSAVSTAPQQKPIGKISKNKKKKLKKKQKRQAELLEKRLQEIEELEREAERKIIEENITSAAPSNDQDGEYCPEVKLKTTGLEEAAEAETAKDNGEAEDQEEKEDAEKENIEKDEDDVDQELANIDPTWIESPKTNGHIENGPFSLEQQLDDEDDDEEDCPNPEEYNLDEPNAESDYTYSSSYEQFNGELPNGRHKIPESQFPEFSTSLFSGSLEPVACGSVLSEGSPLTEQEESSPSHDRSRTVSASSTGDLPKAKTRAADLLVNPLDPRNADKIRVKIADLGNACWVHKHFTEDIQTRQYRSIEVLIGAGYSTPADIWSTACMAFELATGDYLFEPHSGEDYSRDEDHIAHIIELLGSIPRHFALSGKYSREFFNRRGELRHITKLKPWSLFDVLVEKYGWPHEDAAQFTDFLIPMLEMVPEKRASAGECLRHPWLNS
UniProt P56385: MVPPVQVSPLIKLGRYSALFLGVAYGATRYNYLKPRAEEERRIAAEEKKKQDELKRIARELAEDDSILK

Target	NP40-soluble protein abundance (concentration: 0.1mM)	NP40-soluble protein abundance (concentration: 0.5mM)	NP40-soluble protein abundance (concentration: 1mM)	NP40-soluble protein abundance (concentration: 2mM)	NP40-soluble protein abundance (concentration: 4mM)	NP40-soluble protein abundance (concentration: 6mM)	NP40-soluble protein abundance (concentration: 8mM)	NP40-soluble protein abundance (concentration: 10mM)
BLM (UniProt P54132)	1.01 ± 0.04	1.02 ± 0.026	0.998 ± 0.013	0.99 ± 0.063	1 ± 0.051	1.02 ± 0.044	1.02 ± 0.064	0.997 ± 0.011
GTF2B (UniProt Q00403)	1.03 ± 0.027	1.02 ± 0.018	0.9979 ± 0.0021	1 ± 0.02	1.02 ± 0.011	0.977 ± 0.028	0.994 ± 0.01	0.986 ± 0.026
RPP38 (UniProt P78345)	0.917 ± 0.1	0.912 ± 0.056	1.06 ± 0.089	1.13 ± 0.045	1.14 ± 0.087	1.12 ± 0.05	1.09 ± 0.09	1.19 ± 0.066
RBM3 (UniProt P98179)	0.988 ± 0.083	0.98 ± 0.062	1.03 ± 0.045	1.04 ± 0.066	1.06 ± 0.07	1.06 ± 0.06	1.1 ± 0.033	1.13 ± 0.051
UniProt P52758	0.945 ± 0.088	0.875 ± 0.047	0.935 ± 0.062	0.919 ± 0.01	0.943 ± 0.044	0.89432 ± 0.00075	0.941 ± 0.032	0.904 ± 0.033
MTPN (UniProt P58546)	0.855 ± 0.027	0.831 ± 0.045	0.927 ± 0.031	0.912 ± 0.041	0.888 ± 0.026	0.888 ± 0.073	0.824 ± 0.14	0.905 ± 0.045
GRB2 (UniProt P62993)	0.986 ± 0.05	0.973 ± 0.045	0.95 ± 0.058	0.896 ± 0.054	0.898 ± 0.08	0.904 ± 0.06	0.899 ± 0.1	0.873 ± 0.082
UniProt P53990 and related entries	0.936 ± 0.04	0.907 ± 0.045	0.963 ± 0.075	0.917 ± 0.071	0.914 ± 0.082	0.911 ± 0.07	0.867 ± 0.085	0.884 ± 0.069
UniProt P61244 and related entries	0.876 ± 0.046	0.744 ± 0.051	0.795 ± 0.049	0.809 ± 0.019	0.823 ± 0.053	0.822 ± 0.089	0.775 ± 0.07	0.911 ± 0.017
UniProt P51812	1.09 ± 0.061	1.09 ± 0.06	1.03 ± 0.079	1.02 ± 0.04	0.997 ± 0.013	0.977 ± 0.019	0.97 ± 0.025	0.929 ± 0.044
UniProt P60842	0.933 ± 0.094	0.973 ± 0.13	0.874 ± 0.1	0.899 ± 0.11	0.922 ± 0.13	0.891 ± 0.14	0.864 ± 0.11	0.859 ± 0.077
UniProt P78410-2|P78410 and related entries	0.953 ± 0.073	0.929 ± 0.1	0.937 ± 0.058	0.916 ± 0.062	0.888 ± 0.019	0.884 ± 0.032	0.915 ± 0.11	0.843 ± 0.051
UniProt P62877	0.911 ± 0.096	0.906 ± 0.13	0.848 ± 0.092	0.875 ± 0.13	0.877 ± 0.095	0.853 ± 0.12	0.811 ± 0.075	0.831 ± 0.076
UniProt P60520	0.9927 ± 0.0026	1.01 ± 0.02	0.906 ± 0.023	0.895 ± 0.072	0.856 ± 0.048	0.892 ± 0.056	0.852 ± 0.052	0.863 ± 0.073
UniProt P61981	0.845 ± 0.11	0.811 ± 0.067	1.01 ± 0.14	0.987 ± 0.076	0.942 ± 0.075	0.968 ± 0.12	0.912 ± 0.15	1.05 ± 0.16
UniProt P61106	0.936 ± 0.034	0.97 ± 0.016	0.927 ± 0.043	0.913 ± 0.036	0.931 ± 0.052	0.91 ± 0.063	0.91 ± 0.062	0.884 ± 0.055
UniProt P51398 and related entries	1.04 ± 0.064	1.09 ± 0.15	1.12 ± 0.22	1.21 ± 0.28	1.23 ± 0.3	1.17 ± 0.28	1.08 ± 0.21	1.03 ± 0.21
UniProt P52630 and related entries	1.01 ± 0.15	0.979 ± 0.18	0.897 ± 0.1	0.91 ± 0.061	0.945 ± 0.068	0.915 ± 0.058	0.947 ± 0.086	0.898 ± 0.1
UniProt P62330	1.08 ± 0.017	1.08 ± 0.049	0.947 ± 0.017	0.997 ± 0.15	0.964 ± 0.12	0.926 ± 0.11	0.854 ± 0.1	0.816 ± 0.15
UniProt P51531 and related entries	1.08 ± 0.034	1.1 ± 0.043	1.11 ± 0.027	1.14 ± 0.018	1.22 ± 0.064	1.21 ± 0.038	1.253 ± 0.0096	1.2 ± 0.025
UniProt P62937 and related entries	0.911 ± 0.089	0.933 ± 0.053	0.879 ± 0.11	0.889 ± 0.077	0.815 ± 0.12	0.882 ± 0.068	0.852 ± 0.071	0.797 ± 0.12
RAB8A (UniProt P61006)	0.928 ± 0.03	0.95 ± 0.039	0.903 ± 0.041	0.849 ± 0.068	0.812 ± 0.064	0.858 ± 0.085	0.828 ± 0.046	0.81 ± 0.075
CD81 (UniProt P60033)	0.95 ± 0.038	0.908 ± 0.066	0.913 ± 0.018	0.925 ± 0.092	0.901 ± 0.038	0.886 ± 0.044	0.872 ± 0.11	0.863 ± 0.082
UniProt P78362 and related entries	1.05 ± 0.077	1.08 ± 0.12	1.12 ± 0.12	1.18 ± 0.14	1.25 ± 0.12	1.31 ± 0.12	1.37 ± 0.058	1.42 ± 0.069
UniProt P61927 and related entries	0.971 ± 0.068	0.983 ± 0.087	1.08 ± 0.16	1.03 ± 0.18	1.03 ± 0.2	1.02 ± 0.22	0.831 ± 0.2	1.15 ± 0.28
UniProt P56385	0.902 ± 0.051	0.987 ± 0.086	1.04 ± 0.059	1.01 ± 0.12	0.965 ± 0.05	0.994 ± 0.097	1.05 ± 0.078	1.07 ± 0.074
UniProt P60228	1.09 ± 0.046	1.08 ± 0.061	1.05 ± 0.098	1.14 ± 0.17	1.32 ± 0.27	1.44 ± 0.33	1.58 ± 0.3	1.75 ± 0.38
OXCT1 (UniProt P55809)	0.939 ± 0.04	0.962 ± 0.045	0.905 ± 0.038	0.907 ± 0.032	0.903 ± 0.037	0.887 ± 0.031	0.872 ± 0.053	0.888 ± 0.058
UniProt P50570-4	0.999 ± 0.043	1.01 ± 0.038	0.943 ± 0.028	0.951 ± 0.029	0.945 ± 0.024	0.919 ± 0.026	0.921 ± 0.031	0.912 ± 0.014
KNTC1 (UniProt P50748)	1.1 ± 0.1	1.13 ± 0.11	1.05 ± 0.049	1.1 ± 0.06	1.08 ± 0.07	1.04 ± 0.047	1.02 ± 0.047	0.971 ± 0.083

An excerpt of the results above:
Target	NP40-soluble protein abundance (concentration: 0.1mM)	NP40-soluble protein abundance (concentration: 0.5mM)	NP40-soluble protein abundance (concentration: 1mM)	NP40-soluble protein abundance (concentration: 2mM)	NP40-soluble protein abundance (concentration: 4mM)	NP40-soluble protein abundance (concentration: 6mM)	NP40-soluble protein abundance (concentration: 8mM)	NP40-soluble protein abundance (concentration: 10mM)
UniProt P78362 and related entries	1.05 ± 0.077	1.08 ± 0.12	1.12 ± 0.12	1.18 ± 0.14	1.25 ± 0.12	1.31 ± 0.12	1.37 ± 0.058	1.42 ± 0.069
UniProt P61927 and related entries	0.971 ± 0.068	0.983 ± 0.087	1.08 ± 0.16	1.03 ± 0.18	1.03 ± 0.2	1.02 ± 0.22	0.831 ± 0.2	1.15 ± 0.28

— the supplement of paper PMC6411743
